Percent effect of library compounds

Amino acid sequences for entries named in this document (tags omitted). Residues count along the entry.
UniProt A4I591, 1-473: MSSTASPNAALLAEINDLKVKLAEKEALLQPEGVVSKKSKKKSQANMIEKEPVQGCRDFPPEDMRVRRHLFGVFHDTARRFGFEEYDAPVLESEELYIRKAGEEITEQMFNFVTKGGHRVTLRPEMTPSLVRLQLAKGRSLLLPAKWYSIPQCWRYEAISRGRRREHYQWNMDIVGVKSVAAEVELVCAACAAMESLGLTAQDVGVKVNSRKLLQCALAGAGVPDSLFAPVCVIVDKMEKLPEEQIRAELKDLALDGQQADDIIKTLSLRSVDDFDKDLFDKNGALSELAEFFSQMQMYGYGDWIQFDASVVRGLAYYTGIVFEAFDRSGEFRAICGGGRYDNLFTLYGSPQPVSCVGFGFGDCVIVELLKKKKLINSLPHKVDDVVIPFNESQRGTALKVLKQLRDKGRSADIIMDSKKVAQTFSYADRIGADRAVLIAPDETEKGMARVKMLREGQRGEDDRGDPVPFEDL

The filed quantity is “Percent Effect” (%). How 0% and 100% were set is not recorded. Most values in the screen are low, and negative values occur. Compounds were drawn at random from those tested, without regard to their results. A dash means the value is not listed here; it may have been measured.

LiHisRS: 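Enzyme assay of histidyl-tRNA synthetase; the read-out is not stated. Target: Histidine-tRNA ligase, Leishmania infantum (UniProt A4I591). Concentration: 30 µM. Higher reads as stronger inhibition (inferred: compounds with an IC50 in retests scored well above the rest). The assay is labelled LdHisRS but filed under L. infantum. About 69,000 compounds were tested under these conditions; 0.6% (about 410) showed 50% or more at least once.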
Toxoplasma: 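Assay of Toxoplasma gondii numbers, read through their beta-galactosidase reporter with a colour substrate. Compounds at 10 µM. The record gives no direction; the compounds picked for IC50 retests had high values, so higher reads as fewer parasites. Size under these conditions: about 67,000 compounds, about 260 of them at 50% or above in at least one test.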

| compound | LiHisRS | Toxoplasma |
|---|---|---|
| `O=C(O)C(F)(F)F.OCCN1CCOC2(CCCN(c3cccc(F)c3)C2)C1` (stereo not shown) | - | 7.044% |
| `COCc1cc(NCc2ccccc2OC)ncn1` | 12.5% | 7.306% |
| `CCN1CC2(CC1=O)CN(Cc1ccoc1)CCN(C(=O)C(C)C)C2` (stereo not shown) | 17.95% | 73.92% |
| `Cc1nc(CCCC(=O)Nc2cccc(N3CCNC3=O)c2)cs1` | 14.58% | 11.54% |
| `COC(=O)c1ccoc1CN(C)CC(=O)N(C)C` | 10.96% | 9.57% |
| `CC1(C)CN(CCC(=O)NCc2cccc(Cl)c2)CC[C@]1(C)O` | 19.35% | 5.483% |
| `C[C@H]1C[C@@H]2CCN(C(=O)c3cnccn3)C[C@H]2O1` | -5.128% | - |
| `COCC(NC1CSCCSC1)c1ccnn1C` (stereo not shown) | 14.29% | 6.302% |
| `Cc1c(-c2cc(-c3cnn(C)c3C)n(CC(=O)NC3CC3)n2)cnn1C` | -7.143% | 12.7% |
| `O=C(O)C(F)(F)F.O=C(O)C(F)(F)F.[H][C@@]12OCCN(C(=O)c3cncc(C)c3)[C@@]1([H])CC[C@H]2Oc1ccccn1` | - | -4.857% |
| `O=C([C@H]1C[C@H]2OCC[C@H]2N(C(=O)c2ccccn2)C1)N1CCCCO1` | 25.71% | - |
| `O=C(C1CCOCC1)N1CCCC1c1cncc(CN2CCCC2)n1` (stereo not shown) | 8.571% | 13.19% |
| `COc1ccc(C)cc1CN(Cc1nc(C)c(C)o1)C1CCN(C)C1` (stereo not shown) | 12.28% | -24.61% |
| `CC(C)N1[C@H](Cn2cncn2)C[C@@H]2CN(Cc3cccs3)CC[C@@H]21` | 0% | - |
| `COc1ccc(C2=CCN(C(=O)C3CC(=O)N(C4CC4)C3)CC2)cc1` (stereo not shown) | 7.576% | -5.964% |
| `CCN(CC)CCn1c(=O)oc2ccccc21.Cl` | - | 3.293% |
| `[H][C@]12CN(Cc3ccco3)CCN1C[C@H](c1ccccc1)[C@H]2C(=O)NC` | - | 0.4343% |
| `CCc1ccc(NS(=O)(=O)CC2=NC(=O)n3cccc3C2=O)cc1` | -29.13% | -2.51% |
| `CC/C=C(/C)C(=O)NS(=O)(=O)c1ccc(C#N)cc1C(F)(F)F` | 2.439% | 22.11% |
| `O=C(O)C(F)(F)F.O=C1Nc2ccccc2C12CCN(Cc1cccs1)CC2` | - | -19.05% |
| `Cc1noc(C2CCC3(CCN(C(=O)c4cnccn4)CC3)O2)n1` (stereo not shown) | 1.389% | 17.97% |
| `O=C(NCc1cc(=O)n2c(n1)CN(CC1CCOC1)CCC2)C1CC1.O=C(O)C(F)(F)F` (stereo not shown) | - | 7.181% |
| `O=C(c1ccnc(-n2cnnc2)c1)N1CCCC2(CCNC2)C1` (stereo not shown) | 15.5% | -5.843% |
| `O=C(O)C(F)(F)F.[H][C@@]12C[C@@H](Oc3cccc(F)c3)CN1CCN(C(=O)c1ccnnc1)C2` | - | 0.3205% |
| `CC(C)(C)c1nc(NS(=O)(=O)c2cccc(F)c2)no1` | 9.756% | 7.789% |
| `CCOc1cc(=O)n2c(c1C(=O)OCc1ccc(F)cc1)CCCC2` | 10.87% | - |
| `COCCC(=O)N[C@H]1CN(c2nc(C)c3c(n2)CCCC3)C[C@@H]1C1CC1` | 7.143% | 11.14% |
| `Cc1cccc(-c2noc(CN3CCCC3Cn3cccn3)n2)c1` (stereo not shown) | 4.054% | 8.613% |
| `CCn1ccnc1CN1CCN(Cc2cc(C#N)ccc2F)CC1` | 14.68% | -18.94% |
| `[H][C@]12CC[C@]([H])(CN(Cc3cccnc3)C1)N(C(=O)Cc1ccccc1C)C2` | - | -3.401% |
| `COCCC(=O)N1CCC(c2ncncc2-c2ccnc(N)c2)C1` (stereo not shown) | 12.68% | - |
| `CCOC1CC2(CCN(Cc3cccn3C)CC2)C1` | 5.263% | - |
| `CSCCc1nc(C(C)C)nn1-c1ccncc1C` | 10.83% | 6.507% |
| `Cc1ccccc1CN(CCN(C)C)Cc1ncc[nH]1` | 5.833% | -7.607% |
| `CCCn1nc(-c2nc(Cc3ccc(OC)cc3)no2)ccc1=O` | 7.895% | 2.406% |
| `O=C(O)C(F)(F)F.[H][C@@]12CN(CC3CCCC3)CCO[C@]1([H])CN(C(=O)c1cnc(C)cn1)C2` | - | 6.144% |
| `Cc1nnc2n1CCN(C(=O)c1cn(-c3ccc(F)cc3)nn1)C2` | 15.96% | -26.82% |
| `CC(C(=O)N1CCC(Nc2cccnn2)CC1)n1ccnc1` (stereo not shown) | 23.81% | -1.206% |
| `Cc1noc(C)c1CN1CCCC2(CCN(C(=O)N3CCOCC3)C2)C1` (stereo not shown) | 11.93% | -13.19% |
| `COC(=O)CSCc1nc(-c2ccc(Cl)cc2)no1` | 1.961% | 0.6012% |
| `CCc1nc(C)ncc1C(=O)N1CCCC(n2nc(C)nc2C)C1` (stereo not shown) | -12.77% | 9.549% |
| `CNS(=O)(=O)Cc1ccc(CNc2ccc(C#N)cn2)cc1` | 11.11% | 12.89% |
| `COCCC1(C(=O)O)CCCN(Cc2cc3c(cc2Cl)OCO3)C1` (stereo not shown) | 9.859% | 8.649% |
| `CNC(=O)[C@H]1C[C@@H]2CN(S(=O)(=O)Cc3ccccc3)C[C@@H]2N1C` | 25.71% | - |
| `Cc1nc(NCC23CCCN2CCC3)cc(C2CCCNC2)n1` (stereo not shown) | 15.71% | -10.74% |
| `O=C(CN1CCc2ccccc2C1)NCc1ccco1` | -5% | 3.95% |
| `Cc1cc2ccccc2n1CCC(=O)NCCCc1nnc(N)s1` | 16.05% | 19.95% |
| `CC(=O)Nc1ccc([C@@H](O)[C@H]2COCC(=O)N2CC(C)C)cc1` | 32.43% | - |
| `Cc1nc(CNC(=O)CCN2CCN(c3ccccc3)CC2)oc1C` | 4.762% | 4.189% |
| `O=C1COc2ccccc2N1CCCn1cnnn1` | 9.917% | 0.579% |
| `Cc1nc(NC(=O)NCc2nc3cccc(C)c3n2C)oc1C` | 0% | 8.772% |
| `Cc1ccc(C(C)NC(=O)N2CCN(C(=O)CC(F)(F)F)CC2)o1` (stereo not shown) | 19.74% | -1.784% |
| `O=C(O)c1cc(S(=O)(=O)Nc2ccccc2)cc2c1OCCO2` | 9.565% | 14.61% |
| `CN(C)[C@H]1CCCCN(C(=O)COCc2nc3cc(F)ccc3[nH]2)C1` | 16.3% | -45.82% |
| `Cn1ccc(C(=O)N2CCN(c3nccs3)CC2)cc1=O` | 10.71% | -19.68% |
| `[H][C@]1([C@H](O)c2ccc(NC(=O)COC)cc2)COCC(=O)N1C` | - | 10.09% |
| `CC(C)Oc1ccc(CN2CCCC(N3CCCC3)C2)cc1CO` (stereo not shown) | 26.03% | -2.11% |
| `O=C(C1CCOCC1)N1C[C@H]2CNC[C@H]2C1` | 13.46% | - |
| `COCCN(C)CCN1CC2(CCN(C(=O)C3CCOC3)CC2)OC1=O` (stereo not shown) | 16.04% | 8.494% |
| `Cc1nn(C)c2nc(N(CCN(C)C)C3CCCC3)sc12` | 1.408% | 0% |
| `O=C(NCc1ccncc1)c1nc2c(o1)CN(C(=O)c1cccnc1)C2` | 25.71% | - |
| `COCC(=O)N1CCC(O)(CN2CCN(c3ccccc3)CC2)C1` (stereo not shown) | 5.634% | - |
| `Cc1cccnc1[C@H](C)NC(=O)Cc1cc2c(cc1Cl)OCCO2` | 12.5% | 0.5821% |
| `CC(=O)c1cc(C(=O)N2CCC3(CC2)Nc2ccccc2NC3=O)cs1` | 15.2% | -18.49% |
| `COCC1CN(C(=O)c2ccccn2)Cc2nccn2C1` (stereo not shown) | 8.333% | 2.166% |

The last 3 entries again:

compound	LiHisRS	Toxoplasma
Cc1cccnc1[C@H](C)NC(=O)Cc1cc2c(cc1Cl)OCCO2	12.5%	0.5821%
CC(=O)c1cc(C(=O)N2CCC3(CC2)Nc2ccccc2NC3=O)cs1	15.2%	-18.49%
COCC1CN(C(=O)c2ccccn2)Cc2nccn2C1 (stereo not shown)	8.333%	2.166%

Source: ChEMBL document CHEMBL3988442, “University of Dundee, Small-Polar-MMV Screening Library” (2021).